According to PubChem BioAssay AID504444 (National Center for Advancing Translational Sciences (NCATS), 2011):
“And” between values parts separate entries of the source, which are not always exact repeats. Equal values may be shown once. Screen size: about 360,000 compounds; about 7,500 (2.1%) were called active. Inconclusive means that the source gave no clear call. Such entries were picked first, then a sample of the others. Calls come from the whole dose curve; as a rule, active = well fitted inhibition curve with a large enough effect; inconclusive = small, poorly fitted or top-dose-only effect, or effect the other way; inactive = flat fitted curve, though single readings scatter. Potencies beside an inconclusive call are fits to weak or partial responses and may not hold up.
Potency is the fitted concentration of half-maximal effect.

Experiment: Nrf2 qHTS screen for inhibitors; note: nearly all actives have a fitted effect of over 60% in size
Settings: A549 ARE-Fluc reporter, luciferase luminescence, 18-24 h; series mostly up to 46 µM
Summary of the method: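 Nrf2 activity is the BugLite luminescence, read 15 min after reagent at room temperature, following CellTiter-Fluor cytotoxicity readout (30 min, 37C). Compound titrations were applied for 18-24 h to 5000 A549 ARE_Fluc cells/well in 5% FBS OPTI-MEM.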
For `N/C(=N\OC(=O)/C=C/c1ccccc1)c1cccnc1`, the Potency was “inactive”. For `O=C(COc1ccccc1[N+](=O)[O-])Nc1ccc(-c2nc3ccccc3s2)cc1`, the Potency was inconclusive: 16.4 µM [activator, partial curve, poor fit]. With `COCCNc1nc(-c2cc3ccccc3o2)cs1` the Potency was inconclusive: 0.291 µM [activator, full curve, poor fit]. For `Cc1cc(C)c(S(=O)(=O)N(CC(=O)O)C2CCCCC2)c(C)c1`, the Potency was inconclusive: 0.517 µM [falling, partial curve, poor fit]. For `COc1cc(C(C(=O)NC2CCCCC2)N(C(=O)c2snc(C(N)=O)c2N)c2ccc(C)cc2)ccc1O` (configuration not stated), the Potency was inconclusive: 20.6 µM [falling, single point]. For `COc1ccc(OC)c(CCNC(=O)c2c3c(nc4ccccc24)C(=O)N(C2CCCCC2)C3)c1`, the Potency was inconclusive: 25.9 µM [falling, single point]. With `C=CCNC(=O)c1nc2ccccc2s1` the Potency was inconclusive: 10.3 µM [activator, partial curve]. In the case of `O=C(c1ccccc1)c1cnc(Nc2ccccc2Cl)s1`, the Potency is reported as inconclusive: 0.517 µM [activator, partial curve]. For `Cc1noc(C)c1CSCC(=O)Nc1nc(-c2ccc(F)c(F)c2)cs1`, the Potency was active: 9.2 µM. In the case of `CCOc1ccc(-c2cc(NC(=O)c3c(F)cccc3F)c(C(=O)O)s2)cc1`, the Potency is reported as inconclusive: 29.1 µM [falling, single point]. With `O=C(Nc1ncccc1O)c1ccc(C(=O)c2ccccc2)cc1` the Potency was inconclusive: 6.51 µM [activator, partial curve]. For `Cc1cc(SCC(=O)c2ccc(Cl)cc2)nc(=O)[nH]1`, the Potency was inconclusive: 0.58 µM [activator, full curve]. For `O=C(Cn1c(=O)sc2ccccc21)Nc1ccc(S(=O)(=O)N2CCCCC2)cc1`, the Potency was inconclusive: 29.1 µM [falling, single point]. For `Cc1ccc(CNC(=O)CCNC(=O)c2ccco2)cc1`, the Potency was inconclusive: 25.9 µM [activator, single point]. In the case of `CCn1c(SCC(=O)c2ccccc2)nc2ccccc2c1=O`, the Potency is reported as inconclusive: 8.2 µM [activator, partial curve]. In the case of `Cc1cc(C)c(NC(=O)COc2ccc3c(C)cc(=O)oc3c2)c(C)c1`, the Potency is reported as “inactive”. For `O=S(=O)(NCC(Nc1ccc(Cl)cc1)c1ccccc1)c1ccccc1` (configuration not stated), the Potency was inconclusive: 23.1 µM [falling, single point] and inconclusive: 29.1 µM [falling, single point]. In the case of `COc1cc(/C=N/NC(=O)c2cc(-c3ccccc3)sc2N)cc(OC)c1OC`, the Potency is reported as active: 16.4 µM. With `Brc1ccc(Oc2ncc(CN3CCOCC3)s2)cc1` the Potency was inconclusive: 11.6 µM [activator, partial curve]. With `Cc1sc(NC(=O)CS(=O)(=O)c2ccccc2)c(C#N)c1C` the Potency was inconclusive: 5.17 µM [activator, full curve]. With `COC(=O)c1ccc(NC(=O)CN2C(=O)c3cccc4cccc2c34)cc1` the Potency was “inactive”. In the case of `COC(=O)CCNC(=O)N1CCN(c2nnc(C)c3c(C)n(-c4ccc(Cl)cc4)nc23)CC1`, the Potency is reported as “inactive”. For `Cc1ccc(NC(=O)c2ccccc2NS(=O)(=O)c2ccc(Cl)s2)cc1`, the Potency was active: 16.4 µM. For `COCCCNc1nc2c(c(=O)n(Cc3cccc(Br)c3)c(=O)n2C)n1C`, the Potency was inconclusive: 8.2 µM [falling, partial curve]. In the case of `CC(C)C(c1nnnn1Cc1ccccc1)N(CCCO)Cc1cc2cc3c(cc2[nH]c1=O)OCO3` (configuration not stated), the Potency is reported as “inactive”. With `CCCOc1ccc(C(=O)Nc2nc(C)c(Cc3ccc4c(c3)OCO4)s2)cc1` the Potency was inconclusive: 29.1 µM [falling, single point]. In the case of `COc1ccc2nc(/C(C#N)=C\c3ccc(Oc4ccc([N+](=O)[O-])cn4)cc3)[nH]c2c1`, the Potency is reported as “inactive”. For `CCN(C(=O)COC(=O)c1ccc2c(=O)n3c(nc2c1)CCC3)C1CCS(=O)(=O)C1` (configuration not stated), the Potency was inconclusive: 6.51 µM [falling, partial curve, poor fit]. With `CCOc1ccc(-c2nc(Cn3c(=O)cc(C)c4c(C)nn(-c5ccc(C)cc5)c43)c(C)o2)cc1` the Potency was inconclusive: 29.1 µM [activator, single point]. For `CS(=O)(=O)Nc1ccc(C(=O)NCCSCc2c(F)cccc2Cl)cc1`, the Potency was inconclusive: 20.6 µM [falling, partial curve, poor fit]. In the case of `Cc1ccc(C(=O)Nc2ccccc2C(=O)NC(C(=O)O)C(C)C)cc1` (configuration not stated), the Potency is reported as inconclusive: 16.4 µM [activator, partial curve, poor fit]. For `O=C(Nc1ccccc1)C1CCN(S(=O)(=O)c2ccc3[nH]c4c(c3c2)CCCCC4)CC1`, the Potency was active: 16.4 µM. With `OC1(c2cccc(C(F)(F)F)c2)CCN(c2ncnc3c2[nH]c2ccccc23)CC1` the Potency was inconclusive: 18.4 µM [falling, single point]. For `CCCCCCCCCn1c2c(c(=N)c3c1CCC3)CCC2`, the Potency was inconclusive: 11.6 µM [falling, partial curve]. For `O=C(c1nc(-c2ccccc2)n(-c2ccccc2)n1)N1CCCCCC1`, the Potency was inconclusive: 18.4 µM [activator, partial curve, poor fit]. For `CC1(C)CC(=O)C2=C(C1)c1c(ccc3ccccc13)NC2c1ccc(Br)o1` (configuration not stated), the Potency was inconclusive: 23.1 µM [falling, single point]. For `CC[n+]1c(/C=C/c2ccc(OC(C)=O)c(OC)c2)ccc2ccccc21`, the Potency was inconclusive: 29.1 µM [falling, single point]. With `COc1cccc(Nc2nc3cc(Cl)c(Cl)cc3nc2-n2nc(C)cc2C)c1` the Potency was “inactive”. For `COc1ccc(NC(=O)OC(C)C)cc1`, the Potency was inconclusive: 4.11 µM [activator, full curve]. With `CC(C)c1ccc(OCC(=O)NC2=NCCS2)cc1` the Potency was inconclusive: 7.31 µM [activator, partial curve]. In the case of `O=C(NC(=S)NCc1cccnc1)c1cc2ccccc2o1`, the Potency is reported as inconclusive: 0.231 µM [activator, full curve, poor fit]. For `O=C(CCc1nnc2ccc(NCc3ccccc3Cl)nn12)NC1CCCCC1`, the Potency was inconclusive: 11.6 µM [activator, partial curve, poor fit].
